Some of the results follow. The data scatter; read single values as rough.
Key:
Details in all cases: 10 µM
[1] = tested on: Plasmodium vivax liver stage (primary human hepatocyte culture); assay: hypnozoite quantity inhibition (% inhibition); higher = more active against hypnozoites
[2] = tested on: Plasmodium vivax liver stage (primary human hepatocyte culture); assay: schizont net growth area inhibition (% inhibition); higher = more active against liver schizonts
[3] = tested on: primary human hepatocytes; assay: hepatic nuclei reduction relative to DMSO (100 - % of negative control); higher = more toxic to hepatocytes
[4] = assay mode: Prophylactic (treated before or shortly after infection), fixed day 6 post-infection
[5] = assay mode: Radical Cure (treated from day 5 post-infection for 3 days), fixed day 8 post-infection

| Structure (SMILES) | hypnozoite quantity inhibition [1, 4] | hypnozoite quantity inhibition [1, 5] | schizont net growth area inhibition [2, 4] | schizont net growth area inhibition [2, 5] | hepatic nuclei reduction [3, 4] [%] | hepatic nuclei reduction [3, 5] [%] |
| --- | --- | --- | --- | --- | --- | --- |
| O=[N+]([O-])c1ccc(C=NNc2nc3ccccc3[nH]2)cc1 | 17.7 | -19.8 | 16 | -15 | -1 | -8 |
| COc1ccc2nc(C)cc(Nc3ccccc3O)c2c1 | -8 | 38.2 | 4.6 | -12.4 | -4 | -4 |
| O=C(Nc1cccc(C2=NCCN2)c1)Nc1cccc(C2=NCCN2)c1 | -28.8 | 35.9 | -60.7 | 39.8 | -14 | 2 |
| Cc1ccc(CN2CCC(C(=O)Nc3ccc(-c4cc5ccccc5[nH]4)cc3)CC2)o1 | -5.7 | 26.5 | -37.5 | -21.2 | -1 | -6 |
| CC(C)CCNCC(O)Cn1c2ccccc2c2ccccc21 (stereo not given) | 2.5 | -28 | 16.3 | 33.6 | -1 | -2 |
| CC(C)(C)OC(=O)N1CCN(c2cc(-c3ccc(Oc4ccccc4)cc3)n[nH]2)CC1 | -3 | -20 | 13.9 | -53.1 | -3 | -10 |
| N#Cc1nc(Cc2cccc3ccccc23)oc1N1CCN(C(c2ccccc2)c2ccccc2)CC1 | -7.2 | -12.2 | 14 | 64.8 | -12 | 6 |
| Nc1ccn(C2O[C@H](CO)[C@@H](O)[C@H]2O)c(=O)n1 (stereo not given in full) | 22.7 | 21 | 2.8 | 27.6 | 1 | -6 |
| COc1ccc(Nc2nc(NCc3ccccc3)c3ccccc3n2)cc1 | 20.2 | 72.8 | 50.1 | 17.5 | 0 | 14 |
| CCCCc1ccc(NC(=O)Nc2ccc(O[C@H]3CCCC[C@@H]3N(C)c3ccccc3)c(F)c2)cc1 | 25 | 0 | -14.9 | 20.1 | -5 | -2 |
| NC(CC(=O)c1ccc(Cl)cc1Cl)C(Cl)(Cl)Cl (stereo not given) | -9 | -34 | -58 | -15.4 | -9 | -3 |
| O=C(O)C1Cc2c([nH]c3ccccc23)C(c2ccc(Cl)cc2Cl)N1 (stereo not given) | 27.2 | 26.5 | 45.3 | -11.3 | -4 | -4 |
| Cc1ccccc1CN1CCC(O)(c2ccc(Cl)c(C(F)(F)F)c2)CC1 | -43 | -4 | -10.7 | -107 | -11 | -3 |
| O=C(c1ccc(F)cc1)N(CCNc1ccccc1)c1ccccc1 | 36 | -7 | 9.8 | -114 | -4 | -10 |
| Cc1nc(-c2cccc(NCc3ccccc3)c2)[nH]c1C | -30 | 33 | 37.1 | 37 | -4 | 0 |
| CCOC(=O)c1c(C)n(-c2ccccc2)c2ccc(OC(=O)c3cc(OC)c(OC)c(OC)c3)cc12 | -20.9 | -14.4 | -29.8 | -10.2 | -4 | -13 |
| O=C(c1ccccc1F)N(Cc1ccc(Cl)cc1)c1ccccn1 | 4.6 | 17.6 | 9.4 | 11.1 | 2 | -3 |
| CC(=O)N1CCN(c2ccc(Oc3ccc(Cl)cc3O)cc2)CC1 | -19 | -24 | -8.5 | 70.9 | -9 | 0 |
| O=S(=O)(c1ccc(Cl)cc1)N1CCN(C(=S)NCc2ccco2)CC1 | 44 | -80 | 64.4 | -331 | 5 | 3 |
| COc1ccc(C2c3ccc4ccccc4c3Oc3ncn(CCCn4ccnc4)c(=N)c32)cc1OC (stereo not given) | -5 | 40.5 | -71.2 | -64.6 | -3 | -6 |

For convenience, part of the list above.

| Structure (SMILES) | hypnozoite quantity inhibition [1, 4] | hypnozoite quantity inhibition [1, 5] | schizont net growth area inhibition [2, 4] | schizont net growth area inhibition [2, 5] | hepatic nuclei reduction [3, 4] [%] | hepatic nuclei reduction [3, 5] [%] |
| --- | --- | --- | --- | --- | --- | --- |
| COc1ccc(Nc2nc(NCc3ccccc3)c3ccccc3n2)cc1 | 20.2 | 72.8 | 50.1 | 17.5 | 0 | 14 |
| CCCCc1ccc(NC(=O)Nc2ccc(O[C@H]3CCCC[C@@H]3N(C)c3ccccc3)c(F)c2)cc1 | 25 | 0 | -14.9 | 20.1 | -5 | -2 |
| NC(CC(=O)c1ccc(Cl)cc1Cl)C(Cl)(Cl)Cl (stereo not given) | -9 | -34 | -58 | -15.4 | -9 | -3 |

(more compounds)

| Structure (SMILES) | hypnozoite quantity inhibition [1, 4] | hypnozoite quantity inhibition [1, 5] | schizont net growth area inhibition [2, 4] | schizont net growth area inhibition [2, 5] | hepatic nuclei reduction [3, 4] [%] | hepatic nuclei reduction [3, 5] [%] |
| --- | --- | --- | --- | --- | --- | --- |
| COc1ccc(CCNC(=O)c2cc(S(=O)(=O)N3CC(C)CC(C)C3)ccc2Sc2ccc(F)cc2)cc1OC (stereo not given) | 21 | 17.6 | -42.6 | -58.7 | 0 | -2 |
| CCn1c2c(c(=N)c3c1CCC3)CCCC2 | -1.3 | 23.7 | -123 | 17.4 | -5 | -2 |
| CCOC(=O)c1cnc2ccc(CC)cc2c1O | -35.5 | 10.7 | -21 | -46.7 | -13 | -5 |
| Cc1[nH]c2cc(F)cc(F)c2c(=O)c1-c1ccc(Oc2ccc(OC(F)(F)F)cc2)cc1 | -70 | -31 | 49.3 | 25 | -4 | -1 |
| COc1cccc(O)c1CN1CCC2(CCCN(Cc3ccc(F)cc3)C2)C1 (stereo not given) | 6.3 | 21 | -31.6 | 7.5 | 0 | -6 |
| Cc1ccc(F)cc1NC(=O)c1cc(Cl)ccc1Nc1ccccc1 | -12 | -6.2 | 26.6 | -37.2 | 1 | -12 |
| Cc1cccnc1NC(=O)c1cccc(OCc2c(C)noc2C)c1 | 15 | -33 | 6.6 | -30.8 | -7 | -9 |
| COc1ccc(OC(C)C(=O)Nc2ccc(Cl)cc2C)cc1 (stereo not given) | -28 | -31 | 9.3 | -144 | -10 | -8 |
| CCCCN(CCCC)CCC(O)c1cc2c(Cl)cc(Cl)cc2c2cc(C(F)(F)F)ccc12 (stereo not given) | -39 | 26 | -77.3 | 39.7 | 4 | 0 |
| CCCCCn1c(=N)n(CC(O)COc2cccc(C)c2)c2ccccc21 (stereo not given) | -12.5 | 58.8 | -13 | 3.1 | 1 | 1 |
| CC(C)(C)C(=O)Nc1ccc(C(=O)Nc2cccc(-c3nc4ccccc4[nH]3)c2)cc1 | -2 | 40.5 | 96 | 54.3 | 3 | -3 |
| Cc1ccc(-c2nc3ccccc3o2)cc1NCc1cc(Cc2ccccc2)ccc1O | 5.1 | 18.3 | -27.3 | -24.9 | -1 | -6 |
| Nc1ccc(S(=O)(=O)Nc2ncccn2)cc1 | -14 | 49 | 35.3 | 78.9 | -4 | 6 |
| O=C(Nc1nc(-c2ccccn2)cs1)c1cncn1-c1ccccc1 | -28 | -33 | 102 | 0.8 | 10 | 1 |
| COc1ccc(Cl)cc1NC(=O)CN(C)C(=O)c1cnn(-c2ccccc2)n1 | 7 | -15 | 55 | -106 | 0 | -4 |
| COc1ccc(-c2cc3c(nn2)-c2ccccc2C3=O)cc1 | -34.8 | 40.5 | -37 | 30.1 | -10 | -7 |
| Cn1ncc2c(N3CCOCC3)nc(NCCc3c[nH]c4ccccc34)nc21 | 10 | -112 | -1.1 | -17.7 | 6 | 8 |
| Oc1c(CN2CCN(c3ccccc3F)CC2)cc(Br)c2cccnc12 | -18.4 | 63.4 | -18 | 42.2 | -8 | 7 |
| Nc1ccc(-c2nc3cc(Oc4ccc(Oc5ccc6[nH]c(-c7ccc(N)cc7)nc6c5)cc4)ccc3[nH]2)cc1 | -25.8 | 38.2 | -38.6 | -19 | -9 | -3 |
| CC[C@H](CO)NCCN[C@H](CC)CO | -4 | 3 | 32.3 | 4.6 | 1 | -7 |

| Structure (SMILES) | hypnozoite quantity inhibition [1, 4] | hypnozoite quantity inhibition [1, 5] | schizont net growth area inhibition [2, 4] | schizont net growth area inhibition [2, 5] | hepatic nuclei reduction [3, 4] [%] | hepatic nuclei reduction [3, 5] [%] |
| --- | --- | --- | --- | --- | --- | --- |
| COc1ccc(-c2nc(NC(=O)CS(=O)(=O)c3ccc(F)cc3)sc2C)cc1 | 1.7 | 19.8 | 51.9 | -34.4 | 15 | 0 |
| Cc1ccc(NC(=O)Nc2cccc(Cl)c2)cc1F | -25.1 | 38.2 | 33.5 | 36 | -11 | -4 |
| CCN(CC)CCCNc1ccnc2cc(Cl)ccc12 | -16 | 4 | 53.5 | 52.2 | 3 | -4 |
| CC1=Nc2ccc(Cl)cc2C(c2ccccc2)N1CCNC(=O)CN(C)C (stereo not given) | 1 | -44 | 28.2 | 48.6 | 1 | -3 |
| NCCCC(N)(C(=O)O)C(F)F (stereo not given) | 41 | 11 | 5.1 | 16.2 | -3 | -5 |
| O=C(NCCCN1CCC(N2CCCCC2)CC1)C1=Cc2cc(Br)ccc2OC1 | -25.3 | -3.5 | 81.7 | -56 | 4 | -8 |
| CN1CCCN(C(c2ccccc2)c2ccc(Cl)cc2)CC1 (stereo not given) | -34 | 26 | -23.8 | 26.1 | -12 | -2 |
| Cc1noc(C)c1C(=O)N1CCCC(c2[nH]c3c(C)cccc3c2-c2ccncc2)C1 (stereo not given) | 3 | -28 | 52.1 | 13.3 | -5 | -2 |
| COc1cccc2c(C)nc(N=C(N)N)nc12 | 3 | -2 | 20.1 | -3 | -1 | -9 |
| Cc1ccc2c(C)nc(Nc3nc(C)cc(-c4ccccc4)n3)nc2c1 | 3.9 | 26.7 | 31.9 | -50 | -8 | 4 |
| CCOC(=O)c1cc(-c2csc(Nc3c(C)cc(C)cc3C)n2)on1 | -2 | 1 | 42.6 | -29.2 | -6 | -4 |
| CC(c1cc(Cl)cc(Cl)c1)N(C)c1ncc2c(N)nc(N)nc2n1 (stereo not given) | 35 | -31 | -7.4 | -73.8 | 17 | 1 |
| Cc1cnc(N2CCN[C@@H](Cc3ccccc3)C2)nc1Oc1ccc(-n2ccnc2)cc1 | -26 | 14 | -8.1 | 23.9 | -9 | -6 |
| OCCc1ccc(Nc2nccc(-c3nnc4ccccn34)n2)cc1 | -80 | -65 | 32.3 | -24.3 | -12 | -7 |
| Clc1cc(Br)ccc1-c1ccc(CNCC2CCNCC2)o1 | 19 | 7.4 | 56.7 | 8.1 | 8 | -9 |
| CCc1nc2ccccc2n1CC(O)COc1cc(C)ccc1Cl (stereo not given) | -14 | 14 | 18.2 | -28.6 | -2 | 11 |
| C[n+]1c2ccccc2nc2ccc(NCCO)cc21 | 32.9 | -3.1 | -6.8 | -72.1 | -14 | 4 |
| COC(=O)c1c(NC(=O)c2c(F)c(F)c(F)c(F)c2F)sc2c1CCCCC2 | 0 | -25 | -3.5 | -39.3 | 8 | -2 |
| Cn1ccnc1CNCCS(=O)(=O)c1cccc(Nc2ccc(-c3cccc(F)c3)cn2)c1 | 45 | 16 | 26.7 | -182 | 1 | -11 |
| CC(C)(C)c1ccc(C(=O)Nc2c3c(nn2-c2cccc(Cl)c2)CSC3)cc1 | -1.3 | 26.7 | 7.7 | -31.7 | -3 | -5 |
